PubChem BioAssay AID1159584 – Peter MacCallum Cancer Centre, 2016

Assay: 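Genes that CDH1-null MCF10A cells selectively depend on to survive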 (primary screen)
System: human MCF10A breast epithelial cells, parental and CDH1-null
Reagent: siRNA against human genes
Measurement: 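Cell viability by CellTiter-Glo ATP luminescence, each line scaled to the mean of mock wells across plates, then CDH1-null over parental ratio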
Direction: CDH1-null / parental viability ratio: higher = CDH1-null cells survive relatively better than parental
In all, the deposit lists about 18,000 reagents; this is a random part of them. Further read-outs or replicates are left out here. Not stated in the record: the amount of reagent, the time to read-out.

For SMURF2 (SMAD specific E3 ubiquitin protein ligase 2) the deposit lists CDH1-null / parental viability ratio 0.99.
For OR9A4 (olfactory receptor family 9 subfamily A member 4) the deposit lists CDH1-null / parental viability ratio 1.05.
Against C11orf24 (chromosome 11 open reading frame 24), the values are CDH1-null / parental viability ratio 1.14.
OGFOD1 gave CDH1-null / parental viability ratio 1.22.
After knock-down of PPP4R1 (protein phosphatase 4 regulatory subunit 1), the screen gave CDH1-null / parental viability ratio 1.2.
CAPN12 (calpain 12) gave CDH1-null / parental viability ratio 0.8.
After knock-down of ARX (aristaless related homeobox) the results were CDH1-null / parental viability ratio 1.02.
IL20RA (interleukin 20 receptor subunit alpha) showed CDH1-null / parental viability ratio 1.04.
After knock-down of MPDU1 (mannose-P-dolichol utilization defect 1), the record shows CDH1-null / parental viability ratio 0.89.
After knock-down of KCNK2 (potassium two pore domain channel subfamily K member 2), the screen gave CDH1-null / parental viability ratio 1.05.
After knock-down of GGT1 (gamma-glutamyltransferase 1) the results were CDH1-null / parental viability ratio 1.08.
With knock-down of DEFA3 (defensin alpha 3) the results were CDH1-null / parental viability ratio 0.99.
With knock-down of DPF1 (double PHD fingers 1), the record shows CDH1-null / parental viability ratio 0.92.
TRAPPC9 (trafficking protein particle complex subunit 9) scored CDH1-null / parental viability ratio 1.1.
POLG (DNA polymerase gamma, catalytic subunit) scored CDH1-null / parental viability ratio 0.86.
With knock-down of MEFV (MEFV innate immunity regulator, pyrin), the record shows CDH1-null / parental viability ratio 0.82.
Against RSPH9 (radial spoke head component 9), the entry reads CDH1-null / parental viability ratio 0.98.
For FBXO5 (F-box protein 5) the deposit lists CDH1-null / parental viability ratio 1.25.
Silencing of ZNF436 (zinc finger protein 436) came out at: CDH1-null / parental viability ratio 1.03.
Depletion of UBE2F (ubiquitin conjugating enzyme E2 F (putative)) gave: CDH1-null / parental viability ratio 1.07.
After knock-down of MAT2A (methionine adenosyltransferase 2A) the results were CDH1-null / parental viability ratio 1.94.
MSI2 (musashi RNA binding protein 2) scored CDH1-null / parental viability ratio 0.96.
Silencing of CALY (calcyon neuron specific vesicular protein) resulted in: CDH1-null / parental viability ratio 1.14.
With knock-down of PPP2R2A (protein phosphatase 2 regulatory subunit Balpha), the screen gave CDH1-null / parental viability ratio 1.67.
RARS2 (arginyl-tRNA synthetase 2, mitochondrial) gave CDH1-null / parental viability ratio 1.15.
After knock-down of SPOP (speckle type BTB/POZ protein), the screen gave CDH1-null / parental viability ratio 1.32.
Against POGZ (pogo transposable element derived with ZNF domain) the deposit lists CDH1-null / parental viability ratio 0.89.
Against ASB3 (ankyrin repeat and SOCS box containing 3) the deposit lists CDH1-null / parental viability ratio 1.03.
With knock-down of ANAPC13 (anaphase promoting complex subunit 13), the screen gave CDH1-null / parental viability ratio 0.9.
After knock-down of SLC68A1 the results were CDH1-null / parental viability ratio 1.02.
Against SLC27A6 the deposit lists CDH1-null / parental viability ratio 0.95.
CLUL1 (clusterin like 1) showed CDH1-null / parental viability ratio 0.93.
SNRK (SNF related kinase) showed CDH1-null / parental viability ratio 0.77.
GTF2H4 (general transcription factor IIH subunit 4) gave CDH1-null / parental viability ratio 0.79.
Against NKAP (NFKB activating protein) the deposit lists CDH1-null / parental viability ratio 1.47.

Reformatted: 3 of the entries above
gene symbol	CDH1-null / parental viability ratio
SLC68A1	1.02
SLC27A6	0.95
CLUL1 (clusterin like 1)	0.93
